No constants are given. Whether binding was seen depends on the method and setting. Some results given as binding are weak or reduced against the parent protein; the word gives no strength. For some of these results: Tags and fused reporters may be left off the sequences shown.
What was measured:
[1] = biological target: human serum albumin (human) (UniProt P02768); experiment: BLI (Octet RED96), antibody on AHC biosensor, albumin at 200 nM
[2] = biological target: monkey serum albumin (monkey (Cyno)) (UniProt A2V9Z4); experiment: Octet RED96 biolayer interferometry; antibody loaded on AHC biosensor, dipped into monkey (cyno) serum albumin at 200 nM
[3] = biological target: human serum albumin (human) (UniProt P02768); experiment: Octet RED96 biolayer interferometry; antibody loaded on AHC biosensor, dipped into human serum albumin at 200 nM
[4] = biological target: human mesothelin (MSLN), soluble analyte in Octet (human) (UniProt Q13421); experiment: BLI (Octet RED96), Fc fusion on protein A biosensor, MSLN at 100, 50, 25 nM

By UniProt entry, the sequences of proteins in these tests, tags left out. Where a name states a change or a piece, a line headed by the entry shows the natural chain unless it says otherwise. Chains listed by the source or under a name are the forms on record and can include a tag or linker. Residues count along the entry.
UniProt P02768, residues 25-609: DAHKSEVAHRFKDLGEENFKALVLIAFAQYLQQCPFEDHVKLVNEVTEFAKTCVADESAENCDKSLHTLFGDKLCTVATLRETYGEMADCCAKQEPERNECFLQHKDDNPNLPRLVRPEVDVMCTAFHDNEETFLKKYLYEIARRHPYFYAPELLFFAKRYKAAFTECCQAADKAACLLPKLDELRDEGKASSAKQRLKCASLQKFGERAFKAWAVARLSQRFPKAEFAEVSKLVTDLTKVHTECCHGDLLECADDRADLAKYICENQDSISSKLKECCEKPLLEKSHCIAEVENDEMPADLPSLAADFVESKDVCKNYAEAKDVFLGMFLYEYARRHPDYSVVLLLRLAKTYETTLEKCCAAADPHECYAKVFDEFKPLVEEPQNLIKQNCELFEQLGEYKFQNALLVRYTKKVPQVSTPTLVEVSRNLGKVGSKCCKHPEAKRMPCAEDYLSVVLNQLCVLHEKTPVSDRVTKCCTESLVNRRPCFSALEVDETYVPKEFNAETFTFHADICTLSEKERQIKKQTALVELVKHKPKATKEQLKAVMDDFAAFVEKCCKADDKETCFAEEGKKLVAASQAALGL
UniProt A2V9Z4, residues 25-608: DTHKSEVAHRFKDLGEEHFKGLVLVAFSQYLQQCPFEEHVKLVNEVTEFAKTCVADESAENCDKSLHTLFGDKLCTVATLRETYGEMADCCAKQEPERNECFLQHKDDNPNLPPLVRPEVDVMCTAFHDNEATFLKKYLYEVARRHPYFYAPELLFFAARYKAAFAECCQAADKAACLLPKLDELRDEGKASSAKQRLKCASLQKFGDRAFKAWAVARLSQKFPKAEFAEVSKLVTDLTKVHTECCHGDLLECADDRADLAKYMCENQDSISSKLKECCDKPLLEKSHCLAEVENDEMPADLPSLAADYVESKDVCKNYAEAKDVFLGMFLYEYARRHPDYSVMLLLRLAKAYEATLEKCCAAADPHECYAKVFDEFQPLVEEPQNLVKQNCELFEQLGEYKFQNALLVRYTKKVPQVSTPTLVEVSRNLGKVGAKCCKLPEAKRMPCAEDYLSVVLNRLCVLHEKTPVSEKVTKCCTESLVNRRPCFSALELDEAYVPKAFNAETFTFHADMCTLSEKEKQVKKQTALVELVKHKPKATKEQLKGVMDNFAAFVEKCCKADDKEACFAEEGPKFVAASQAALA
human mesothelin (MSLN), soluble analyte in Octet (Q13421, form named): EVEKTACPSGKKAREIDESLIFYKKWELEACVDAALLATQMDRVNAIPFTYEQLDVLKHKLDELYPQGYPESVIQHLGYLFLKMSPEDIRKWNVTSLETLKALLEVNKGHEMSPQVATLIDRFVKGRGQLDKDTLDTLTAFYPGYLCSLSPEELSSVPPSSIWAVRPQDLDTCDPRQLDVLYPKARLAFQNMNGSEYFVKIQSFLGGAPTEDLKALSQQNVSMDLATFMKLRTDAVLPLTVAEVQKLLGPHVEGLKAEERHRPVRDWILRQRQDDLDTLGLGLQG

Binder | binding [1] | binding [2] | binding [3] | binding [4]
AWT-P494 (humanized P367) anti-HSA antibody (VHH) VHH: EVQLVESGGGLVQPGGSLRLSCAASGSTWSINTLAWYRQAPGKQRDLVARISSGGSTYYADSVKGRFTISRDNSKNTLYLQMNSLRAEDTAVYYCYAQSTWYPPSWGQGTLVTVSS | binds | binds | binds | 
R3D5 (original llama VHH, Anti-MSLN-3) as human IgG1 Fc fusion (Fc fusion, not shown: a dimerising Fc or GST) QVQLVESGGGLVQAGGSLRLSCAASGSISSIRHMRWYRQAPGKQRELVATVSNDGSAYYLGSVKGRFTISRTNAKNTLLYLQMNSLKPEDSALYICNADTWGWPGADYWGQGTQVTVSS |  |  |  | binds

Reference: patent US20210340272A1
